Binding data for 15 molecules are collected here from patent publication EP4713368A1.

The chains behind the UniProt entries cited, without tags or fusion partners. Where a name states a change or a piece, a line headed by the entry shows the natural chain unless it says otherwise.
UniProt P10747: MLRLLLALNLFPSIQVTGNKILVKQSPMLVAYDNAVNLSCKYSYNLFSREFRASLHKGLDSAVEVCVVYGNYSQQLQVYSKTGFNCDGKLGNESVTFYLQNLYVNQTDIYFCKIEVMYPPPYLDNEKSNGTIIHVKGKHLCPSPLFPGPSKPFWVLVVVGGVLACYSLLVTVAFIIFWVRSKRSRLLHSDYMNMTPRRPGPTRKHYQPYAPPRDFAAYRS

This assay concerns the target human CD28 (human) (UniProt P10747). The experiment in a line: affinity maturation of CD28-binding antibodies (Example 10: Discovery of Additional Antibodies that Bind to CD28).

Results are given in words; binding and its absence hold for the method and conditions named. Some entries that bind do so weakly or less than the wild type.

B1: Ab No. 61a (antibody, V domains shown)
VH: EVQLLESGGGLVQPGGSLRLSCAASGFTFAHYAMSWVRQAPGKGLEWVSAISASGVETYYADSVKGRFTISRDNSKNTLYLQMNSLRAEDTAVYYCTRDSPHMATYKSYYYYGMDVWGQGTTVTVSS
VL: DIVMTQSPDSLAVSLGERATINCKSSQSLLNARTGKNYLAWYQQKPGQPPKLLIYWASTRESGVPDRFSGSGSGTDFTLTISSLQAEDVAVYYCKQSYSLRTFGGGTKVEIK
Turning to B1, the binding result is given as “binds”.

B2: Ab No. 68a (antibody, V domains shown)
VH: EVQLVESGGGLVQPGGSLRLSCAASGFTFSSFSMNWVRQAPGKGLEWVSYIASDASTIYYADSVKGRFTISRDNAKNSLYLQMNSLRAEDTAVYYCAREVHRGWGAFDIWGQGTMVTVSS
VL: DIVMTQSPDSLAVSLGERATINCKSSQSLLNARTGKNYLAWYQQKPGQPPKLLIYWASTRESGVPDRFSGSGSGTDFTLTISSLQAEDVAVYYCKQSYSLRTFGGGTKVEIK
As for B2, the binding result is on record as “binds”.

B3: Ab No. 61b (antibody, V domains shown)
VH: EVQLLESGGGLVQPGGSLRLSCAASGFTFSNYAMSWVRQAPGKGLEWVSAISADAGSTYYADSVKGRFTISRDNSKNTLYLQMNSLRAEDTAVYYCTRDSPHMATYKSYYYYGMDVWGQGTTVTVSS
VL: DIVMTQSPDSLAVSLGERATINCKSSQSLLNARTGKNYLAWYQQKPGQPPKLLIYWASTRESGVPDRFSGSGSGTDFTLTISSLQAEDVAVYYCKQSYSLRTFGGGTKVEIK
Consider B3, for which the binding entry is “binds”.

B4: Ab No. 68b (antibody, V domains shown)
VH: EVQLVESGGGLVQPGGSLRLSCAASGFTFGDYSMNWVRQAPGKGLEWVSYISSSSDTIFYADSVKGRFTISRDNAKNSLYLQMNSLRAEDTAVYYCAREVHRGWGAFDIWGQGTMVTVSS
VL: DIVMTQSPDSLAVSLGERATINCKSSQSLLNARTGKNYLAWYQQKPGQPPKLLIYWASTRESGVPDRFSGSGSGTDFTLTISSLQAEDVAVYYCKQSYSLRTFGGGTKVEIK
On to B4, for which the binding result was “binds”.

B5: Ab No. 61d (antibody, V domains shown)
VH: EVQLLESGGGLVQPGGSLRLSCAASGFTFSNYAMSWVRQAPGKGLEWVSAIGGSGDETYYADSVKGRFTISRDNSKNTLYLQMNSLRAEDTAVYYCTRDSPHMATYKSYYYYGMDVWGQGTTVTVSS
VL: DIVMTQSPDSLAVSLGERATINCKSSQSLLNARTGKNYLAWYQQKPGQPPKLLIYWASTRESGVPDRFSGSGSGTDFTLTISSLQAEDVAVYYCKQSYSLRTFGGGTKVEIK
As to B5, the binding entry is recorded as “binds”.

B6: Ab No. 61e (antibody, V domains shown)
VH: EVQLLESGGGLVQPGGSLRLSCAASGFTFEHYAMSWVRQAPGKGLEWVSAISASGGSTYYADSVKGRFTISRDNSKNTLYLQMNSLRAEDTAVYYCARDSPHMATYKSYYYYGMDVWGQGTTVTVSS
VL: DIVMTQSPDSLAVSLGERATINCKSSQSLLNARTGKNYLAWYQQKPGQPPKLLIYWASTRESGVPDRFSGSGSGTDFTLTISSLQAEDVAVYYCKQSYSLRTFGGGTKVEIK
Consider B6, for which the binding entry is reported as “binds”.

B7: Ab No. 61c (antibody, V domains shown)
VH: EVQLLESGGGLVQPGGSLRLSCAASGFTFTHYAMSWVRQAPGKGLEWVSAISASGEVTYYADSVKGRFTISRDNSKNTLYLQMNSLRAEDTAVYYCVRDSPHMATYKSYYYYGMDVWGQGTTVTVSS
VL: DIVMTQSPDSLAVSLGERATINCKSSQSLLNARTGKNYLAWYQQKPGQPPKLLIYWASTRESGVPDRFSGSGSGTDFTLTISSLQAEDVAVYYCKQSYSLRTFGGGTKVEIK
For B7, the binding result was “binds”.

B8: Ab No. 57a (antibody, V domains shown)
VH: QVQLQESGPGLVKPSETLSLTCTVSGGSINFYYWSWIRQPPGKGLEWIGSIYPPGSTNYNPSLKSRVTISVDTSKNQFSLKLSSVTAADTAVYYCARTEVGATRPREDFQHWGQGTLVTVSS
VL: QSVLTQPPSVSAAPGQKVTISCSGSSSNIGNNYVSWYQQLPGTAPKLLIYDNNKRPSGIPDRFSGSKSGTSATLGITGLQTGDEADYYCGTWDISLGWVFGGGTKLTVL
As to B8, the binding result is given as “binds”.

B9: Ab No. 57f (antibody, V domains shown)
VH: QVQLQESGPGLVKPSETLSLTCTVSGGSISSAYWNWIRQPPGKGLEWIGSIYYPGQTNYNPSLKSRVTISVDTSKNQFSLKLSSVTAADTAVYYCARTEVGATRPREDFQHWGQGTLVTVSS
VL: QSVLTQPPSVSAAPGQKVTISCSGSSSNIGNNYVSWYQQLPGTAPKLLIYDNNKRPSGIPDRFSGSKSGTSATLGITGLQTGDEADYYCGTWDISLGWVFGGGTKLTVL
With B9, the binding entry is “binds”.

B10: Ab No. 57e (antibody, V domains shown)
VH: QVQLQESGPGLVKPSETLSLTCTVSGGSINNYYWSWIRQPPGKGLEWIGSIYYPASTDYNPSLKSRVTISVDTSKNQFSLKLSSVTAADTAVYYCARTEVGATRPREDFQHWGQGTLVTVSS
VL: QSVLTQPPSVSAAPGQKVTISCSGSSSNIGNNYVSWYQQLPGTAPKLLIYDNNKRPSGIPDRFSGSKSGTSATLGITGLQTGDEADYYCGTWDISLGWVFGGGTKLTVL
Turning to B10, the binding result was “binds”.

B11: Ab No. 57b (antibody, V domains shown)
VH: QVQLQESGPGLVKPSETLSLTCTVSGGSIEPYYWSWIRQPPGKGLEWIGSIYYRGQTNYNPSLKSRVTISVDTSKNQFSLKLSSVTAADTAVYYCARTEVGATRPREDFQHWGQGTLVTVSS
VL: QSVLTQPPSVSAAPGQKVTISCSGSSSNIGNNYVSWYQQLPGTAPKLLIYDNNKRPSGIPDRFSGSKSGTSATLGITGLQTGDEADYYCGTWDISLGWVFGGGTKLTVL
On to B11, for which the binding result was “binds”.

B12: Ab No. 57d (antibody, V domains shown)
VH: QVQLQESGPGLVKPSETLSLTCTVSGGSIGIYYWSWIRQPPGKGLEWIGSIYYSGSTDYNPSLKSRVTISVDTSKNQFSLKLSSVTAADTAVYYCARTEVGATRPREDFQHWGQGTLVTVSS
VL: QSVLTQPPSVSAAPGQKVTISCSGSSSNIGNNYVSWYQQLPGTAPKLLIYDNNKRPSGIPDRFSGSKSGTSATLGITGLQTGDEADYYCGTWDISLGWVFGGGTKLTVL
In the case of B12, the binding entry is recorded as “binds”.

B13: Ab No. 57c (antibody, V domains shown)
VH: QVQLQESGPGLVKPSETLSLTCTVSGGSIRDYYWSWIRQPPGKGLEWIGSIYYTGRTNYNPSLKSRVTISVDTSKNQFSLKLSSVTAADTAVYYCARTEVGATRPREDFQHWGQGTLVTVSS
VL: QSVLTQPPSVSAAPGQKVTISCSGSSSNIGNNYVSWYQQLPGTAPKLLIYDNNKRPSGIPDRFSGSKSGTSATLGITGLQTGDEADYYCGTWDISLGWVFGGGTKLTVL
As to B13, the binding result is on record as “binds”.

B14: Ab No. 46d (antibody, V domains shown)
VH: QVQLVQSGAEVKKPGSSVKVSCKASGGTFSNYAISWVRQAPGQGLEWMGGIIPISGTATYAQKFQGRVTITADESTSTAYMELSSLRSEDTAVYYCARHSSSWGTAITSDYWGQGTLVTVSS
VL: QSVLTQPPSVSGAPGQRVTISCTGSGSNIGAGYDVHWYQQLPGTAPKLLIYGNTNRPSGVPDRFSGSKSGTSASLAITGLQAEDEADYYCQSNDNSLRGILFGGGTKLTVL
B14: the binding entry is “binds”.

B15: Ab No. 46e (antibody, V domains shown)
VH: QVQLVQSGAEVKKPGSSVKVSCKASGGTFSSHAISWVRQAPGQGLEWMGGIIPVSGTANYAQKFQGRVTITADESTSTAYMELSSLRSEDTAVYYCARHSSSWGTAITSDYWGQGTLVTVSS
VL: QSVLTQPPSVSGAPGQRVTISCTGSGSNIGAGYDVHWYQQLPGTAPKLLIYGNTNRPSGVPDRFSGSKSGTSASLAITGLQAEDEADYYCQSNDNSLRGILFGGGTKLTVL
In the case of B15, the binding result was “binds”.
